From paper PMC11963299
Results are given in words; binding and its absence hold for the method and conditions named. Binding seen in cells or lysates may run through a third protein. Some results given as binding are weak or reduced against the parent protein; the word gives no strength.

Protein sequences, listed by entry. Tags and fused reporters are not part of them.
UniProt O54791: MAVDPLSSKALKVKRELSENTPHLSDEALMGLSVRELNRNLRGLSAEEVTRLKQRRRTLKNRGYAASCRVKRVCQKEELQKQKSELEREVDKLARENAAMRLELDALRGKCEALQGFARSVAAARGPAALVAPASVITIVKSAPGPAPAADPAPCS
UniProt P97302: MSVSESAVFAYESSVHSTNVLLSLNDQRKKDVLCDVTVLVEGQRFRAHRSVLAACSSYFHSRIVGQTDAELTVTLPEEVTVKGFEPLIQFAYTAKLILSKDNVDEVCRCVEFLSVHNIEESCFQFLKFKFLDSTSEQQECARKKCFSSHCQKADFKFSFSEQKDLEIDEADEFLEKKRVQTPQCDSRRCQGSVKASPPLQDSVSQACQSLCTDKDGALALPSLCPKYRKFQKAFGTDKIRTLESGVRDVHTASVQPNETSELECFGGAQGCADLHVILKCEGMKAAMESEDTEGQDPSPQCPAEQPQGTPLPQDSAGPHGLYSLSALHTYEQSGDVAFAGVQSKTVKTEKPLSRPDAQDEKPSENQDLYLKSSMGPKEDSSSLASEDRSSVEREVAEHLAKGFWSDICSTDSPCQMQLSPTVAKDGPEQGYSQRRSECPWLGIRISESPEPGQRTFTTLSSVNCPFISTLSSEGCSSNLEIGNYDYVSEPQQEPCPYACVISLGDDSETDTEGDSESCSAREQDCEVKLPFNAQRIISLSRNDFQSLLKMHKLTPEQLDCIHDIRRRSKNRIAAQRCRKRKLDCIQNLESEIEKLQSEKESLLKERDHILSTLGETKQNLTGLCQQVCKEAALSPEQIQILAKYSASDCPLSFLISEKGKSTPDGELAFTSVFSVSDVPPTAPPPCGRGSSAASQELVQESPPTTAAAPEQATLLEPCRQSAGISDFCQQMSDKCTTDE

Biological target: v-maf musculoaponeurotic fibrosarcoma oncogene homolog F (MAFF) (mouse (endogenous in AML12 cells / hepatocytes)) (UniProt O54791)
Test: co-IP; cellular lysates of hepatocytes after H/R incubated with anti-MAFF, anti-Bach1 or rabbit IgG (4.0 ug) at 4 C overnight, protein A/G magnetic beads 2 h, western blotting

Substance: BTB and CNC homology 1 (BACH1) (from UniProt P97302 1-739)
- binding: binds
